Measurements published in patent US20070009975A1.
No constants are given. Whether binding was seen depends on the method and setting. Some binding calls cover weakened binding; strength is not graded here.

Sequences of proteins named here, by UniProt entry; tags and fusion partners are left off.
UniProt P42383: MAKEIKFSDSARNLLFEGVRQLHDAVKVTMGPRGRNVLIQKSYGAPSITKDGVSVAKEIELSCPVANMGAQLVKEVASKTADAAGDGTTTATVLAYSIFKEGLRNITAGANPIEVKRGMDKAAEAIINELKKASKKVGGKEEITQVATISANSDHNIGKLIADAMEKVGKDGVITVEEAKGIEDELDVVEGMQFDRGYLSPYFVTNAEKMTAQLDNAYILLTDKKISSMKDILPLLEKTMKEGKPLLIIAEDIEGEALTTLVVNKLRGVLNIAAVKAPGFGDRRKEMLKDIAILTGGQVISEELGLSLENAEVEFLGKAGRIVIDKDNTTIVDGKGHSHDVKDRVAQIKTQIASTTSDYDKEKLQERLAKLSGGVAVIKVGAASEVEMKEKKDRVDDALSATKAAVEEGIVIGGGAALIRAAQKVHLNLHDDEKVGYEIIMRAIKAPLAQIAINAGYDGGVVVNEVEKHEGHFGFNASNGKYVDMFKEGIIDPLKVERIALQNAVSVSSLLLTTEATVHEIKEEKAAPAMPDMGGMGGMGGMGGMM

T1: alkylhydroperoxide-reductase of H. pylori (26 kDa-protein) (Helicobacter pylori) (UniProt P21762)
T1 sequence (looked up): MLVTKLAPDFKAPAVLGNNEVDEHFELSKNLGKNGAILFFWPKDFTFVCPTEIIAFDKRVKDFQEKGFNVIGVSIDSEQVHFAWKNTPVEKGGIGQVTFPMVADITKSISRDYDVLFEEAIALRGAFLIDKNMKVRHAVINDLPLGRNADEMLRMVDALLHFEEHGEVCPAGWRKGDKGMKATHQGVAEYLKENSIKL


Legend:
[1] = target: T1, alkylhydroperoxide-reductase of H. pylori (26 kDa-protein) (Helicobacter pylori); assay: immunoblot on H. pylori lysate (reducing SDS-PAGE), hybridoma supernatant
[2] = target: T1, alkylhydroperoxide-reductase of H. pylori (26 kDa-protein) (Helicobacter pylori); assay: Ag-specificity column of Table 2; mAbs selected by direct ELISA on the antigen (Example 4)
[3] = target: T1, alkylhydroperoxide-reductase of H. pylori (26 kDa-protein) (Helicobacter pylori); assay: immunoblot on purified antigen (reducing SDS-PAGE), hybridoma supernatant
[4] = target: Hsp60 of H. pylori (Helicobacter pylori) (UniProt P42383); assay: immunoblot on H. pylori lysate (reducing SDS-PAGE), hybridoma supernatant
[5] = target: Hsp60 of H. pylori (Helicobacter pylori) (UniProt P42383); assay: Ag-specificity column of Table 2; mAbs selected by direct ELISA on the antigen (Example 4)
[6] = target: Hsp60 of H. pylori (Helicobacter pylori) (UniProt P42383); assay: immunoblot on purified antigen (reducing SDS-PAGE), hybridoma supernatant

binding [1] | binding [2] | binding [3] | binding [4] | binding [5] | binding [6] | Binder
binds | binds | binds | – | – | – | HP15m/3E8-D9-D6 (antibody, IgG1, V domains shown) VH: VQLLEESGGGLVQPTGSLKLSCAASGFTFNSYAMYWVRQAPGKGLEWVARIRSKSDNYATYYANSVKDRLTISRDDSQNMLYLQMNNLKTEDTAMYYCVRDHDKFPFYYALDYWGPGTLVTVSS VL: ELVLTQSPTIMSASLGERVTMTCTASSSVSSSYLHWYQQKPGSSPKLWIYSTSNLASGVPVRFSGSGSVTSYSLTISSMEAEDAATYYCHQYHRSPPTFGGGTKLEIK
– | – | – | binds | binds | binds | HP16m/2A5-E6-E5 (antibody, mouse IgG1, V domains shown) VH: VQLLEESGPGLVAPSQSLSITCTVSGFSLSRYSVHWVRQPPGKGLEWLGMIWGGGSTDYNSGLKSRLSISNDNSKSQVFLKMNSLQTDDTAIYYCARNMGGRYPDYFDYWGQGTTLTVSS VL: DIVLTQSPASLAVSLGQRATISCRASKSVSTSGYSYIHWYQQKPGQPPKLLIFLASNLESGVPARFSGSGSGTDFTLNIHPVEEEDAATYHCQHSRELPLTFGAGTKLELK
